Data as given in patent publication US20220403031A1.
Results are given in words; binding and its absence hold for the method and conditions named.

Columns and labels:
CD22.his = assay: non-specific binding ELISA, antigen coated at 2 ug/mL
FGFR.his = assay: as above

B1: AP3R2-1A3-z12-hIgG1 (Fc fusion, not shown: a dimerising Fc or GST)
chain: EVQLVESGGGLVQPGGSLRLSCAASGHFSNLAVNWFRQAPGKERELVAGILWSGGSTFYADSVKGRFTISRGNAENMLYLQMNSLRAEDTAVYYCNTGTNWGQGTLVTVSS
With B1 the binding (CD22.his) was “no binding (tested: 10 µg/ml)” and the binding (FGFR.his) was “no binding (tested: 10 µg/ml)”.
